# Measurements from PMC10501186.
# Protein sequences, listed by entry. Tags and fused reporters are not part of them.
# UniProt Q5NCY0: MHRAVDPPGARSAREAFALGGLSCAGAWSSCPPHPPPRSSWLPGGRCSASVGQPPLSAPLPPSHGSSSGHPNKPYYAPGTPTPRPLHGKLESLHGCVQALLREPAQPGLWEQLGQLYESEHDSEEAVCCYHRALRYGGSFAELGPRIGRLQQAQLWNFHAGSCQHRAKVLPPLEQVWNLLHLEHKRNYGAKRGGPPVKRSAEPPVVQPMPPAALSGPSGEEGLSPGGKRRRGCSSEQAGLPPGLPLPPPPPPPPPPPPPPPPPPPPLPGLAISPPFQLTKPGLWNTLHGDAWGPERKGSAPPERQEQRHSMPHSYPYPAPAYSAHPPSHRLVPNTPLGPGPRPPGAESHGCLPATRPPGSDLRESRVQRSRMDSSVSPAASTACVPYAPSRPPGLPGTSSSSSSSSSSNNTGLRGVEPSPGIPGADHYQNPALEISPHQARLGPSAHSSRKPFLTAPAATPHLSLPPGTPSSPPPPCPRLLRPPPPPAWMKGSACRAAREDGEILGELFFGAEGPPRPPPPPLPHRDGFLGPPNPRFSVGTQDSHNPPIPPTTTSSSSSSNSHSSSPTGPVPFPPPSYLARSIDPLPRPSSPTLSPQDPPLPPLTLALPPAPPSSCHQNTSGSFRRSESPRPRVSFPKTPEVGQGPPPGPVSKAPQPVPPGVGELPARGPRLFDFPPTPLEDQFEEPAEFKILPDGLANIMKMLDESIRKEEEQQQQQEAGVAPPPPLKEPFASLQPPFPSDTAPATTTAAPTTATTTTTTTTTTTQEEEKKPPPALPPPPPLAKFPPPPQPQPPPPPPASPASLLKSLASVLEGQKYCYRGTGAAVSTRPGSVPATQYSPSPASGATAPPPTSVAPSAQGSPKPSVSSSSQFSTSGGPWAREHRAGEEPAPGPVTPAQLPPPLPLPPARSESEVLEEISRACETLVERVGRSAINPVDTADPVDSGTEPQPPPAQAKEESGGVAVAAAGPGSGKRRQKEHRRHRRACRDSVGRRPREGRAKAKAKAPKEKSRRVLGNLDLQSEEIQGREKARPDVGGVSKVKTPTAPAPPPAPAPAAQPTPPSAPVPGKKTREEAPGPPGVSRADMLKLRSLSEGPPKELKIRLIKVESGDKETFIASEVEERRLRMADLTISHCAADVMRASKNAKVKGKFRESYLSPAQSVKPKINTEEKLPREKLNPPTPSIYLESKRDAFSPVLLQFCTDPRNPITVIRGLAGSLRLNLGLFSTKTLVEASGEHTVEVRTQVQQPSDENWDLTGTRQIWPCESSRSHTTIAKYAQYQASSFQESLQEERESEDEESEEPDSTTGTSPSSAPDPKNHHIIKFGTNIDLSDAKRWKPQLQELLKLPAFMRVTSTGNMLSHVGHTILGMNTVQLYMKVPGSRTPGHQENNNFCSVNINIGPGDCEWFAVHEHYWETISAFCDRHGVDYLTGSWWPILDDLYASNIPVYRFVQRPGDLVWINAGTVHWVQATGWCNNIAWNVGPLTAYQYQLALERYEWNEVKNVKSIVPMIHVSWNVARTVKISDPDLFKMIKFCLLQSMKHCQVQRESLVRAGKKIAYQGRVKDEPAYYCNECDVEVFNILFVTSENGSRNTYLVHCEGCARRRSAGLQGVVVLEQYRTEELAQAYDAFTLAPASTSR
# UniProt Q8C3P7: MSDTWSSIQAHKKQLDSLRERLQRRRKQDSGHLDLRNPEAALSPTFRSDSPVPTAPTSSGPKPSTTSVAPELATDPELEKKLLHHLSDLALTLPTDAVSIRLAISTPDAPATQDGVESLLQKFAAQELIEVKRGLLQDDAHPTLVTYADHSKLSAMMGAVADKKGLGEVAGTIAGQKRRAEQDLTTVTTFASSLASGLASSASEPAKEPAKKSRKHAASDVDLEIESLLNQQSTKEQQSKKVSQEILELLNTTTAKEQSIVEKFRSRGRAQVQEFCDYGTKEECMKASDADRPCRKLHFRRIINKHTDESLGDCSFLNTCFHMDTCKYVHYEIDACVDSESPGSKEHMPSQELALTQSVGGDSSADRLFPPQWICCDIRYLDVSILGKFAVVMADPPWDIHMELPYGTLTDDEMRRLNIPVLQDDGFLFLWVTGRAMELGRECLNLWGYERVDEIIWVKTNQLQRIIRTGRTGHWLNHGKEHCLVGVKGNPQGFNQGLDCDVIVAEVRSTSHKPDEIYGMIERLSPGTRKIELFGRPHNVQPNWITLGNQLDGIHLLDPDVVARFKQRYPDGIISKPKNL
# No constants are given. Whether binding was seen depends on the method and setting. Binding seen in cells or lysates may run through a third protein. Some results given as binding are weak or reduced against the parent protein; the word gives no strength.
# B1: METTL14 (protein, UniProt Q3UIK4 1-456)
# chain: MDSRLQEIRERQKLRRQLLAQQLGAESADSIGAVLNSKDEQREIAETRETCRASYDTSAPNSKRKCLDEGETDEDKVEEYKDELEMQQEEENLPYEEEIYKDSSTFLKGTQSLNPHNDYCQHFVDTGHRPQNFIRDVGLADRFEEYPKLRELIRLKDELIAKSNTPPMYLQADIEAFDIRELTPKFDVILLEPPLEEYYRETGITANEKCWTWDDIMKLEIDEIAAPRSFIFLWCGSGEGLDLGRVCLRKWGYRRCEDICWIKTNKNNPGKTKTLDPKAVFQRTKEHCLMGIKGTVKRSTDGDFIHANVDIDLIITEEPEIGNIEKPVEIFHIIEHFCLGRRRLHLFGRDSTIRPGWLTVGPTLTNSNYNAETYASYFSAPNSYLTGCTEEIERLRPKSPPPKSKSDRGGGAPRGGGRGGTSAGRGRERNRSNFRGERGGFRGGRGGTHRGGFTPR
# Molecular target: lysine demethylase 6B (mouse (endogenous in mESCs)) (UniProt Q5NCY0)
# Test: co-IP; immunoprecipitation of KDM6B from mESC lysate (50 mmol/L Tris-HCl pH 7.5, 150 mmol/L NaCl, 1% NP40), with and without RNase A/T1 treatment; antibody-conjugated Protein G Dynabeads, 4°C overnight; Western blot
molecule,measurement,value
METTL3 (from UniProt Q8C3P7 1-580),binding,no binding
B1,binding,binds
